Source: publication PMC11361369
No constants are given. Whether binding was seen depends on the method and setting. In cells and extracts the contact can be indirect. Some entries that bind do so weakly or less than the wild type. For part of these data: Where a sequence is shown, tags or fusion partners need not be part of it.

Amino acid sequences for entries named in this document (tags omitted).
UniProt Q61103: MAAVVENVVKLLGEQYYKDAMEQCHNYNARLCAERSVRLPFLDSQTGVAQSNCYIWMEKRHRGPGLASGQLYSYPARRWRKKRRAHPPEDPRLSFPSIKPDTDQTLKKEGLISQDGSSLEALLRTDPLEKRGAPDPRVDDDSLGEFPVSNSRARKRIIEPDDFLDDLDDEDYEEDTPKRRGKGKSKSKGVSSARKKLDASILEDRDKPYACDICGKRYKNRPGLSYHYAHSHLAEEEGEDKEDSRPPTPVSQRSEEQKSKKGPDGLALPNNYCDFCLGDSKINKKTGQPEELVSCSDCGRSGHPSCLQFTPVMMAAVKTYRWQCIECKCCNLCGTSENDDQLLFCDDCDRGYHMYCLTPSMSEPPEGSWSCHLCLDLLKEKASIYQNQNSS
UniProt E9Q7E2: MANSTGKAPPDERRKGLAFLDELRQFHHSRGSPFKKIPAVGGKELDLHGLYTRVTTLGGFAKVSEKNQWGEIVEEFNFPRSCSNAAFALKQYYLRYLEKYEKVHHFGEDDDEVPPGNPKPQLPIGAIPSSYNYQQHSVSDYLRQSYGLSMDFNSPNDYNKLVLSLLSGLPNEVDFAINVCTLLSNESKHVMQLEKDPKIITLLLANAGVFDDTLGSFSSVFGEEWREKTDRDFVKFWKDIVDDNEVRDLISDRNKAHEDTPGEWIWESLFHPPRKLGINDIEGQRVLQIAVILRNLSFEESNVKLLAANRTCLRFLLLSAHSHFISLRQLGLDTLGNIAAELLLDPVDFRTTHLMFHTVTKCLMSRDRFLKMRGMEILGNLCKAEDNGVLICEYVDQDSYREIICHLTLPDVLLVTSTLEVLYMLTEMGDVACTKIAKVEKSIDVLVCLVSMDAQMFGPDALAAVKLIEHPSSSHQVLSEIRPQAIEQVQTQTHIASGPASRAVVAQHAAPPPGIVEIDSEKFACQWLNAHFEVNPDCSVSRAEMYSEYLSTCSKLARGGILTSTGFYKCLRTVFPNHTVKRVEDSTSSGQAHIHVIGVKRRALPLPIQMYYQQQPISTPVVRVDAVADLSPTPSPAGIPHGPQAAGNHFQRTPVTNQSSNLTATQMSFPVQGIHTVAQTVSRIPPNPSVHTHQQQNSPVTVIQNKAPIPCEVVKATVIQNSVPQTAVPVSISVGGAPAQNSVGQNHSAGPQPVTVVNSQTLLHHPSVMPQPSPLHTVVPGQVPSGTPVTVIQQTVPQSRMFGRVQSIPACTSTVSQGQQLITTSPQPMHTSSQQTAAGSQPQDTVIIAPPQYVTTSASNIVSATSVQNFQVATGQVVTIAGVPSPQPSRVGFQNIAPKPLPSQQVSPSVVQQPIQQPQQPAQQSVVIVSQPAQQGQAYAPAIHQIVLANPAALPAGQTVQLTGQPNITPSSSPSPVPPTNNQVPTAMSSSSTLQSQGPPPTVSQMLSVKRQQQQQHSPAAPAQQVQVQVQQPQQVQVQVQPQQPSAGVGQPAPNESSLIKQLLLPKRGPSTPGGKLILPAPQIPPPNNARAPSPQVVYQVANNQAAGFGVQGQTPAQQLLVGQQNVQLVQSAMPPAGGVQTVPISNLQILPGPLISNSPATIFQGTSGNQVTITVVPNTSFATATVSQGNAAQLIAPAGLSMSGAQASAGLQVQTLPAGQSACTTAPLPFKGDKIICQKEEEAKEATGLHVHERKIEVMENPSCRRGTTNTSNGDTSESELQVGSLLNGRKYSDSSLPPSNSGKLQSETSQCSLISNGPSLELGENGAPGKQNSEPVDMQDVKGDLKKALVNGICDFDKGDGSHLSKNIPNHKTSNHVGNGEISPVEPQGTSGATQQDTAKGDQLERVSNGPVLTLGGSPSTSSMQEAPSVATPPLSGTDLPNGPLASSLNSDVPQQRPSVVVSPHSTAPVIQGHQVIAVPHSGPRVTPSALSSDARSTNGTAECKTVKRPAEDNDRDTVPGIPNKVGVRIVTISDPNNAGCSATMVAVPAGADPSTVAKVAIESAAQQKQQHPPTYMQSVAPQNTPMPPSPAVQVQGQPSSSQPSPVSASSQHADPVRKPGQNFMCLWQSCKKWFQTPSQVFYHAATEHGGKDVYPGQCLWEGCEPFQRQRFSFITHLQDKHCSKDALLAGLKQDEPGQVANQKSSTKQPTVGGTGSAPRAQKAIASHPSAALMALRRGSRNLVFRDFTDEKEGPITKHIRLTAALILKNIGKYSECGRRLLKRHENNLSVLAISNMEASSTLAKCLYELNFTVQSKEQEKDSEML
UniProt P97496: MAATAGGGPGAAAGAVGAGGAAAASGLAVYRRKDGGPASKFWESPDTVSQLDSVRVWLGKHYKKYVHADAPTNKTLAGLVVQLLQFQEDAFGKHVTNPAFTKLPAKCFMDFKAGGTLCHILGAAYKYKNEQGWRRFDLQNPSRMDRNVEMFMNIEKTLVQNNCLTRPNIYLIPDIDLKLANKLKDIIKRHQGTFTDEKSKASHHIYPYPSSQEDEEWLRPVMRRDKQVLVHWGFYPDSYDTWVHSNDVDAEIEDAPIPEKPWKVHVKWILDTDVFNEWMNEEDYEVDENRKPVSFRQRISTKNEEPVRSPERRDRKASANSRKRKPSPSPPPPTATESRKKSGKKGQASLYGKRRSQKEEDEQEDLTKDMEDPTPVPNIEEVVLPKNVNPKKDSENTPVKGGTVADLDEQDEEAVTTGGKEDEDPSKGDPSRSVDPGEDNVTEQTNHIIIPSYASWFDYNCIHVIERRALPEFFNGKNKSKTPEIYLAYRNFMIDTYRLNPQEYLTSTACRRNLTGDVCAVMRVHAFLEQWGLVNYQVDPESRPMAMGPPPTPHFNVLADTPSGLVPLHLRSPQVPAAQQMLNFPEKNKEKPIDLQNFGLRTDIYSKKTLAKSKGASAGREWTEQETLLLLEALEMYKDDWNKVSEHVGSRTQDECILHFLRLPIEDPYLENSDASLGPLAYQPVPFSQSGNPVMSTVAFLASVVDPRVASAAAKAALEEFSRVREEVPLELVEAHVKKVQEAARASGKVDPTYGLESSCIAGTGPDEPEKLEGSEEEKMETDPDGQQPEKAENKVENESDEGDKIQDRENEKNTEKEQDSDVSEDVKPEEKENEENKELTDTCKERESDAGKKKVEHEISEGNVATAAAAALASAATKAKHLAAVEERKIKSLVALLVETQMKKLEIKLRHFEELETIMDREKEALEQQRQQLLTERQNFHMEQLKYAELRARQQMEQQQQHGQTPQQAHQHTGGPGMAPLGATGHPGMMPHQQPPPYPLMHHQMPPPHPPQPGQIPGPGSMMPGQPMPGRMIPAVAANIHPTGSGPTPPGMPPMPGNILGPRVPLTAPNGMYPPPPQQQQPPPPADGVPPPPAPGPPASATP
UniProt Q3TKT4: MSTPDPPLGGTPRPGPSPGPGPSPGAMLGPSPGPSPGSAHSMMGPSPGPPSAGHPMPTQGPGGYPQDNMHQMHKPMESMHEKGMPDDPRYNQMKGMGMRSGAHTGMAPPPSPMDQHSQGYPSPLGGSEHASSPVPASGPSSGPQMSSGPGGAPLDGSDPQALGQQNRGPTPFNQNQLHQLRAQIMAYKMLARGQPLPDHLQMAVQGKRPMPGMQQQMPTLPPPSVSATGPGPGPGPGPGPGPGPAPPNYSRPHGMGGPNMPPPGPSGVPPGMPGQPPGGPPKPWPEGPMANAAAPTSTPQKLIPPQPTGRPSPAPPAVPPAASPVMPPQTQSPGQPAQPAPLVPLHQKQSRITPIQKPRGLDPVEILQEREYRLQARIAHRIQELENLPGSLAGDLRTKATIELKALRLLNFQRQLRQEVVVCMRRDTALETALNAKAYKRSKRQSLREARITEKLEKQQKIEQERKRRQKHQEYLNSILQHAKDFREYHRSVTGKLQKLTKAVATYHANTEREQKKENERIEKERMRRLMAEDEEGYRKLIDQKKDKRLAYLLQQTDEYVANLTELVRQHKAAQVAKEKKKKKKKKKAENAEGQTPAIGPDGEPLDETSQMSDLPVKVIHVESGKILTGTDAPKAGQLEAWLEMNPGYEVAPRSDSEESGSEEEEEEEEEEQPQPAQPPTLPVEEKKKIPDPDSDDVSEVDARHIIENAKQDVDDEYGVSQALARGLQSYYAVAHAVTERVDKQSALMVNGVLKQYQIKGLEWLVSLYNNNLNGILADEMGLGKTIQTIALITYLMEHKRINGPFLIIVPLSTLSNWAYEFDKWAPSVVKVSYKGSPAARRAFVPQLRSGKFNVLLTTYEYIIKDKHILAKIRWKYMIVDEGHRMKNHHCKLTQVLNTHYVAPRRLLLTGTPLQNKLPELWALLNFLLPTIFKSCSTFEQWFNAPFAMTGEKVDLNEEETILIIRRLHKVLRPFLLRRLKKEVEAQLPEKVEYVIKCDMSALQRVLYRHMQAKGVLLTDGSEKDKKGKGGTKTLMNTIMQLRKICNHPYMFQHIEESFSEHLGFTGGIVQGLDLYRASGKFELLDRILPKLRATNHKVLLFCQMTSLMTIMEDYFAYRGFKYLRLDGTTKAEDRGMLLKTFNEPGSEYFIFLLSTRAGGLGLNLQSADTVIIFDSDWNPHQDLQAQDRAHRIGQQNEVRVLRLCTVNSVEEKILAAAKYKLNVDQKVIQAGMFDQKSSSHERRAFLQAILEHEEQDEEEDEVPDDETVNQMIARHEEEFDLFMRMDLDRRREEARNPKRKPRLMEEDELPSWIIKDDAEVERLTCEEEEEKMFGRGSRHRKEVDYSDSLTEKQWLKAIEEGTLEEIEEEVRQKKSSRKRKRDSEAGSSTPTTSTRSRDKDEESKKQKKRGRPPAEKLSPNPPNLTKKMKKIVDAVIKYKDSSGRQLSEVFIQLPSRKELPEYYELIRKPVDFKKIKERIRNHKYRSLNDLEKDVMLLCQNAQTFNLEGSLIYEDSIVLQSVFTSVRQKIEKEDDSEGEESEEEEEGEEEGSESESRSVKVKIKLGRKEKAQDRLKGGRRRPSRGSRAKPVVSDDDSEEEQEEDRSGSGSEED

How the values were obtained:
BRD9-2xFkbp-V5 = biological target: T1, BRD9-2xFkbp-V5 (UniProt Q3UQU0); test: co-IP; mouse anti-V5 (E9H8O) on protein G beads, mESC ammonium sulfate protein extract in IP buffer (20 mM Hepes pH 7.5, 150 mM KCl, 0.1% Triton X-100), overnight at 4°C; Western blot for BAF155 and BRG1
T1 sequence: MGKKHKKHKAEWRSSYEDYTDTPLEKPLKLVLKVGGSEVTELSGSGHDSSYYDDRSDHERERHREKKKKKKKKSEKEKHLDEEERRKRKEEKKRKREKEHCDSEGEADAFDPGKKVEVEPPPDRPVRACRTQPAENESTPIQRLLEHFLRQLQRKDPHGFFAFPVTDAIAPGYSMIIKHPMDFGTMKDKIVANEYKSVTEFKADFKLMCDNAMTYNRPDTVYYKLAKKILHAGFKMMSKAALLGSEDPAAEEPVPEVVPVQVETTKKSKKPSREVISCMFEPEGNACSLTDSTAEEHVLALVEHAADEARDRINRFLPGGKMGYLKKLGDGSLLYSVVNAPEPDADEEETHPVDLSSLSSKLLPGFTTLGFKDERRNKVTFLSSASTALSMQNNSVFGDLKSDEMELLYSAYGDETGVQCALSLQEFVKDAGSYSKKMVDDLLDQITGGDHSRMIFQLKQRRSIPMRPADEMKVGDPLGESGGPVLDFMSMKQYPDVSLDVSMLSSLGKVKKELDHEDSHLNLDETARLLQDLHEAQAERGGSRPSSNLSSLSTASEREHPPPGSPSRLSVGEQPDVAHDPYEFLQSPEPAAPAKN

DPF2-2xFkbp-V5 = DPF2-2xFkbp-V5 (UniProt Q61103); test: as above
PHF10-2xFkbp-V5 = biological target: T2, PHF10-2xFkbp-V5 (UniProt Q9D8M7); test: as above
T2 sequence: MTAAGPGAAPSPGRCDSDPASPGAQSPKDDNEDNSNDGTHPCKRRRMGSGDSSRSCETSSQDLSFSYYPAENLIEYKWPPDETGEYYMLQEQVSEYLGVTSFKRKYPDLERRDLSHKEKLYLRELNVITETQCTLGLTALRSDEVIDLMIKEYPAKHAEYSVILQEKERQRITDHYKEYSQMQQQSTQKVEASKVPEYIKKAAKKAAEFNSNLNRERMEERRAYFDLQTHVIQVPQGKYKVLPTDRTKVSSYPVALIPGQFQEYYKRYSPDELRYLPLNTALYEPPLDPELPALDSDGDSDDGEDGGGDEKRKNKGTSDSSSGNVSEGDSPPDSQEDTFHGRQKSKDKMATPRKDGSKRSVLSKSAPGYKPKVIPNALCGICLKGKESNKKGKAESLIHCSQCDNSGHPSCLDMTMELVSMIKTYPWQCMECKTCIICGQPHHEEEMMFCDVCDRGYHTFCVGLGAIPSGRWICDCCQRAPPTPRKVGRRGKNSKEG

[1] = biological target: ARID2 (mouse (endogenous in mESCs)) (UniProt E9Q7E2); test: co-IP; rabbit anti-ARID2 on protein G beads, protein extract of mESCs expressing PHF10-2xFkbp-V5 in IP buffer (20 mM Hepes pH 7.5, 150 mM KCl, 0.1% Triton X-100), overnight at 4°C; Western blot for BRG1, BAF155 and V5

Measured: binding

BAF155 (SMARCC1) (from UniProt P97496 1-1104)
binds: BRD9-2xFkbp-V5 | DPF2-2xFkbp-V5 | PHF10-2xFkbp-V5 | [1]

BRG1 (SMARCA4) (from UniProt Q3TKT4 1-1613)
binds: BRD9-2xFkbp-V5 | DPF2-2xFkbp-V5 | PHF10-2xFkbp-V5 | [1]

B1: PHF10-2xFkbp-V5 (protein, UniProt Q9D8M7 1-497)
chain: MTAAGPGAAPSPGRCDSDPASPGAQSPKDDNEDNSNDGTHPCKRRRMGSGDSSRSCETSSQDLSFSYYPAENLIEYKWPPDETGEYYMLQEQVSEYLGVTSFKRKYPDLERRDLSHKEKLYLRELNVITETQCTLGLTALRSDEVIDLMIKEYPAKHAEYSVILQEKERQRITDHYKEYSQMQQQSTQKVEASKVPEYIKKAAKKAAEFNSNLNRERMEERRAYFDLQTHVIQVPQGKYKVLPTDRTKVSSYPVALIPGQFQEYYKRYSPDELRYLPLNTALYEPPLDPELPALDSDGDSDDGEDGGGDEKRKNKGTSDSSSGNVSEGDSPPDSQEDTFHGRQKSKDKMATPRKDGSKRSVLSKSAPGYKPKVIPNALCGICLKGKESNKKGKAESLIHCSQCDNSGHPSCLDMTMELVSMIKTYPWQCMECKTCIICGQPHHEEEMMFCDVCDRGYHTFCVGLGAIPSGRWICDCCQRAPPTPRKVGRRGKNSKEG
binds: [1]
